Laboratory results reported in doi:10.1101/2025.09.24.678097.
Results are given in words; binding and its absence hold for the method and conditions named. Binding seen in cells or lysates may run through a third protein. Some binding calls cover weakened binding; strength is not graded here.

Chains of the proteins cited; added tags and fusions are not shown. Residues count along the entry.
UniProt Q15109, residues 23-404: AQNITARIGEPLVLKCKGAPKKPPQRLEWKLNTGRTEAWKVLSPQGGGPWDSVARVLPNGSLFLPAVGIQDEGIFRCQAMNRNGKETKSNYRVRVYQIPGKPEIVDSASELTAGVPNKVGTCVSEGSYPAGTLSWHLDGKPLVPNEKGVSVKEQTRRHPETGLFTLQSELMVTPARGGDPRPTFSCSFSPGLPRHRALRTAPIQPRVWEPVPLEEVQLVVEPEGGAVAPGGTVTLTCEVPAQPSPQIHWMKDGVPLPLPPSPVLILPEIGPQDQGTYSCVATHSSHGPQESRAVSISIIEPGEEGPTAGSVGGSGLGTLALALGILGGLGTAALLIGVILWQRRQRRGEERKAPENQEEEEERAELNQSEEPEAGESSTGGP

Biological target: receptor for advanced glycation end products (RAGE), His tag fused (UniProt Q15109)
Test: pull-down; His-tagged RAGE in 293T lysate (50 mM NaH2PO4, 300 mM NaCl, 10 mM imidazole, pH 8.0) incubated with 2 ug CTSG at 4 C for 2 hours, captured on Ni-NTA agarose beads, washed 3 times, Western blot with anti-His tag and anti-CTSG; the paper calls it co-immunoprecipitation; only the binder purified

B1: Cathepsin G (enzyme, UniProt P08311 21-244)
chain: IIGGRESRPHSRPYMAYLQIQSPAGQSRCGGFLVREDFVLTAAHCWGSNINVTLGAHNIQRRENTQQHITARRAIRHPQYNQRTIQNDIMLLQLSRRVRRNRNVNPVALPRAQEGLRPGTLCTVAGWGRVSMRRGTDTLREVQLRVQRDRQCLRIFGSYDPRRQICVGDRRERKAAFKGDSGGPLLCNNVAHGIVSYGKSSGVPPEVFTRVSSFLPWIRTTMRS
With B1 the binding was “binds”.
